# This is one part of the list. These are further read-outs of the screen, such as a control signal, another cell line or another target. No call is given for them. For some assays here: Most of these compounds were active or inconclusive in the main read-out, so they are no random draw.
# Key:
# PubChem AID 1586 = settings: yeast two-hybrid polyglutamine protein interaction, reporter readout; measured here: averaged growth delta OD
# [1] = selective SMN2 exon splicing luciferase activators – cell-based, SMN2/SMN1 luciferase reporters (AID 1598); settings: SMN2 vs SMN1 luciferase splicing reporter cells, at 10 µM; SMN1 luciferase ratio: measured here: SMN1 luciferase reporter average; SMN2 luciferase ratio: measured here: SMN2 luciferase reporter average, stronger effect = higher value
# [2] = rescue of PC12 cells from polyQ htt toxicity – LDH release (AID 1610); settings: PC12 mutant huntingtin toxicity, final LDH at 4 uM, stronger effect = lower value
Compound,signal change (36 h minus 0 h) (PubChem AID 1586),SMN1 luciferase ratio [1],SMN2 luciferase ratio [1],normalised LDH release [2]
O=C(O)c1ccc(S(=O)(=O)N(Cl)Cl)cc1,0.0628,0.83,0.83,0.872
CN1C2CC(OC(=O)[C@H](CO)c3ccccc3)C[C@H]1[C@H]1OC21 (some centres undefined),0.145,0.87,0.96,0.924
CC(N)CCCC(C)(C)O (centres undefined),0.314,0.86,0.86,0.929
Nc1nc2ncc(CNc3ccc(C(=O)N[C@@H](CCC(=O)O)C(=O)O)cc3)nc2c(=O)[nH]1,0.255,0.83,1.03,0.932
CC[N+](CC)(CC)CCOc1cccc(OCC[N+](CC)(CC)CC)c1OCC[N+](CC)(CC)CC,0.166,0.67,0.91,0.953
Cn1c(=O)c2c(ncn2C)n(C)c1=O,0.123,0.99,0.97,0.752
CC1=C(C(=O)O)N2C(=O)[C@@H](NC(=O)[C@H](N)c3ccc(O)cc3)[C@H]2SC1,0.164,0.84,0.93,0.574
CCCCNc1cc(C(=O)O)cc(S(N)(=O)=O)c1Oc1ccccc1,0.0208,0.88,0.81,0.839
NC(N)=NCCC[C@@H](NC(=O)[C@@H](N)Cc1ccc(O)cc1)C(=O)O,0.103,0.99,0.92,1.01
CC1(C)O[C@@H]2CC3C4C[C@H](F)C5=CC(=O)CC[C@]5(C)C4[C@@H](O)C[C@]3(C)[C@]2(C(=O)CO)O1 (some centres undefined),0.199,0.84,0.92,0.709
Cc1onc(-c2ccccc2Cl)c1C(=O)N[C@@H]1C(=O)N2[C@@H]1SC(C)(C)[C@@H]2C(=O)O,0.0702,0.87,0.93,0.992

# Some of the entries above in a different format:
Compound	signal change (36 h minus 0 h) (PubChem AID 1586)	SMN1 luciferase ratio [1]	SMN2 luciferase ratio [1]	normalised LDH release [2]
CC[N+](CC)(CC)CCOc1cccc(OCC[N+](CC)(CC)CC)c1OCC[N+](CC)(CC)CC	0.166	0.67	0.91	0.953
Cn1c(=O)c2c(ncn2C)n(C)c1=O	0.123	0.99	0.97	0.752
CC1=C(C(=O)O)N2C(=O)[C@@H](NC(=O)[C@H](N)c3ccc(O)cc3)[C@H]2SC1	0.164	0.84	0.93	0.574

# Source: PubChem BioAssay
